# According to the supplement of paper PMC5949888:
# Most values lie at the floor of the assay. Slopes are relative: functional sequences can read slightly below zero.
# Tested on: Saccharomyces cerevisiae PS128 hsf1 delta, HSF1(1-493) fusion
# Assay: growth estimate (transactivation domain function in HSF1 fusion, heat-shock survival) (a.u. (slope of normalised read count over time)); higher = stronger growth at 37°C, i.e. more transactivation activity
# Conditions: library: random library
row,Substance,growth estimate
1,SNIRLSGAPSGNRYSYIVAP,< -0.25
2,SNLRESGSSRSALHW,< -0.25
3,SNNRERVPSLVPGHLHRCRV,< -0.25
4,SNPEYCTWITANSATAYIPH,< -0.25
5,SNRIQGLLTDSELP,< -0.25
6,SNRPKIILSWFSMLRTEHS,< -0.25
7,SNRTGTC,< -0.25
8,SNSHLSITVLDHLNVKDGVC,< -0.25
9,SNSVHCCAAL,< -0.25
10,SNTRAWYGGHCFSS,< -0.25
11,SNVLLG,< -0.25
12,SNVSSNETHTLYSLIDANS,< -0.25
13,SNVSVL,< -0.25
14,SNWLDPT,< -0.25
15,SPAFNSTAPGSDRGQWGWLF,< -0.25
16,SPAG,< -0.25
17,SPAKCAGVG,< -0.25
18,SPDC,< -0.25
19,SPDSNSKSP,< -0.253
20,SPEDHSRSCFLKI,< -0.25
21,SPEPDPVPRLRVVEDGATLG,< -0.25
22,SPEVEP,< -0.25
23,SPEWSEHVMRILDRVACGP,< -0.25
24,SPGI,< -0.25
25,SPGLVGVGQYSWLGPR,< -0.25

# An excerpt of these results, with tabs:
row	Substance	growth estimate
2	SNLRESGSSRSALHW	< -0.25
7	SNRTGTC	< -0.25
8	SNSHLSITVLDHLNVKDGVC	< -0.25
15	SPAFNSTAPGSDRGQWGWLF	< -0.25
18	SPDC	< -0.25
21	SPEPDPVPRLRVVEDGATLG	< -0.25
22	SPEVEP	< -0.25

# More records

row,Substance,growth estimate
1,SPGMETVARLWRDPVHGGAS,< -0.25
2,SPGYTVPLCFYESLCSSGPQ,< -0.25
3,SPHKFIRDGGVGSRPAVQLQ,-0.231
4,SPKGTSFNTRFAASSSTVRT,< -0.25
5,SPLAARGTTELRSIHPTPMH,< -0.25
6,SPLAFVGSQRA,< -0.25
7,SPLCL,< -0.25
8,SPLIVTSNSVYTNATRIVTT,< -0.25
9,SPLSS,< -0.25
10,SPLSSRCPPVAVLGVDPSTL,< -0.25
11,SPNCYQR,-0.243
12,SPPF,< -0.25
13,SPQLLCKLAASRAGEEKLGA,< -0.25
14,SPRCHMATHLPPLHINSWRL,< -0.25
15,SPRFCCEACTRYRDCYLCVG,< -0.25
16,SPRWVGYMLNTV,< -0.25
17,SPSALIFASQEVRQSMKKLW,< -0.253
18,SPSLGRSINGRSWGEDPRVT,< -0.25
19,SPSMKAPLAWRLTGPVPLDV,< -0.25
20,SPSPPMIRHMFCKC,< -0.25
21,SPTQARASVTRGVSYHSRQS,< -0.25
22,SPTRARCMQVNLLKRL,< -0.25
23,SPTVSAEVSVARVDTWVSKG,< -0.25
24,SPVEVHEPQQAELGVSRRQK,< -0.25
25,SPVPPSPCAVCACAQMLTTL,< -0.25

row,Substance,growth estimate
1,SPWDNLT,< -0.25
2,SPYGLSRKGLMSRVQEGHFT,< -0.25
3,SPYTTLVTASCL,< -0.25
4,SQAGKVTRHVIVGRKANGVS,< -0.25
5,SQAPSVMQKNHCIRTPRF,< -0.25
6,SQAQRRMSDTPLVTLEVPIS,< -0.25
7,SQCCVFTIALGAWCVRLKIV,< -0.25
8,SQCGLLQKIYVHHCEHRCRS,< -0.25
9,SQCIICCSGG,< -0.25
10,SQCKSMFACSA,< -0.25
11,SQCPRGLLSALGRVTSL,< -0.25
12,SQCWLSRASLMYSLDRAEEK,< -0.25
13,SQDGWSCGRLTTPDS,< -0.25
14,SQETPMHRRSVRLITITSGV,< -0.25
15,SQEVRVRLID,< -0.25
16,SQGFSKWAVRVSRLVGSVVF,< -0.25
17,SQGSAFALE,< -0.25
18,SQID,< -0.25
19,SQISQLAVIKNEYKIAATHW,< -0.25
20,SQKGYGQSLTRVLHSLEVTR,< -0.25
21,SQLGRP,< -0.25
22,SQLRTCRSRSSLFVGTWQGM,< -0.25
23,SQNPYGLV,< -0.25
24,SQP,< -0.25
25,SQPCGGNRVLAVTTN,< -0.25

# Reprinted at random: 3 entries already listed.
row,Substance,growth estimate
21,SQLGRP,< -0.25
25,SQPCGGNRVLAVTTN,< -0.25
7,SQCCVFTIALGAWCVRLKIV,< -0.25

# Additional results.

row,Substance,growth estimate
1,SQPLPICGVKSRAPLFRSLR,< -0.25
2,SQPSVKSAGPMFMQ,< -0.25
3,SQRSGVPAVRVCARSPRTED,< -0.25
4,SQRSRM,< -0.25
5,SQRVGLEYRSPAGTSGVCTR,< -0.25
6,SQSGRIR,< -0.25
7,SQSLCLVGWPGNYVRSVAPT,< -0.25
8,SQSPLFDKYVGTV,< -0.25
9,SQSRLSGGPFQRFLHSGCCG,< -0.25
10,SQTFGE,< -0.25
11,SQVLMVIVDL,< -0.25
12,SQYGMVMSRVFLSMVVL,< -0.25
13,SRAASSNDLFCGGHWTWLRC,< -0.25
14,SRASLRKCAVQARGERRACW,< -0.25
15,SRCPTKVTSKGIGF,< -0.25
16,SRCSSEIGDGQLTLWPRHLT,< -0.25
17,SRDGGSPCAPYGIRSPCKLG,< -0.25
18,SRDHGRTARYPLMEE,< -0.25
19,SRDWAGVYLDKLARVIRLSL,< -0.25
20,SREG,< -0.25
21,SRETYFELAFPSC,-0.169
22,SRF,< -0.25
23,SRFQ,< -0.25
24,SRFR,< -0.25
25,SRFVQPSPSDPGSMSALIPV,< -0.25

row,Substance,growth estimate
1,SRFYSGTGRHQVLPAAK,< -0.25
2,SRG,< -0.25
3,SRGAQAT,< -0.25
4,SRGGYA,< -0.25
5,SRGHGPRDRRSSYHANDY,< -0.25
6,SRGLSYLLVAVER,< -0.25
7,SRGQPTHTHQNGG,< -0.25
8,SRGSMTKSLSTLGPPNDDSE,< -0.25
9,SRGTGGGTGRYKARLQRSFA,< -0.25
10,SRGYDQRQRNLGSYLRAGPS,< -0.25
11,SRHCGPG,< -0.25
12,SRHTYPKVVQDP,< -0.25
13,SRHYSPYGCCAQSLPLLSP,< -0.25
14,SRIFR,-0.243
15,SRIKRREILGIRSD,< -0.25
16,SRIV,< -0.25
17,SRKPLPGYQRGTLGKEIGRT,< -0.25
18,SRKVCGKGVQTI,< -0.25
19,SRLDRKAPP,< -0.25
20,SRLILSIYWELGL,< -0.25
21,SRLLVPKSLLLRGCTEGCGS,< -0.25
22,SRLNNGFGSLSLPYWCSACP,< -0.25
23,SRLRRVSGGATLARTRTAYI,< -0.25
24,SRLTVRNQWASS,< -0.25
25,SRPFIRRYGGVRLSVLTVT,< -0.25

row,Substance,growth estimate
1,SRPQFPIGL,< -0.25
2,SRPRASTPNRLNIQRSREKR,< -0.25
3,SRQDSLGPPSTDPLSRATSV,< -0.25
4,SRQLGPH,< -0.25
5,SRQVTSIAQQ,-0.243
6,SRR,< -0.25
7,SRRGHTVTAAWAWW,< -0.25
8,SRRGLW,< -0.25
9,SRRLARIDCSDSL,< -0.25
10,SRRLGDPWRLGLFLVICYGA,< -0.25
11,SRRLPRESADVPVGIDGR,< -0.25
12,SRRRAHPGMIG,< -0.25
13,SRRRLFVTFDPYDPIIACFF,< -0.25
14,SRRRRETLSGFRPP,< -0.25
15,SRRSRAMKTGASVERW,< -0.25
16,SRRTTLWQRVVGGWGNVASP,< -0.25
17,SRSAMARARRPTGAQREYAT,< -0.25
18,SRSEWTKNLPLPCVVKVTSA,< -0.25
19,SRSGGSEVNSVADVGCLSWE,< -0.25
20,SRSGLRRSLMCKQKEIARQL,< -0.25
